Data as given in PubChem BioAssay AID743454 (Peter MacCallum Cancer Centre, 2014).

Assay: 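Knock-downs lowering viability or raising caspase 3/7 activity in vorinostat-treated resistant cells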 (primary screen)
System: human HCT116-VR colon cancer cells, selected for vorinostat resistance
Reagents: siRNA pool against human genes, 40 nM siRNA pool
Timing: vorinostat for 24 h, read-out about 72 h after transfection
Conditions: vorinostat at 2.5 µM final
Read-out: 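Cell viability by CellTiter-Fluor and caspase 3/7 activity by luminescence, each scaled to mock wells per plate, duplicates averaged, then robust z-scored over all plates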
Scale: viability robust z-score: higher = more viable cells than screen typical; caspase robust z-score: higher = more caspase 3/7 activity than screen typical
Hit rule: 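Hits are knock-downs in viability class RV1/RV2 or caspase class CA1/CA2, excluding ones that killed cells in the no-drug cell-count arm; hits then retested with single siRNAs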
The whole screen tested about 18,000 reagents; below is an unselected part. In the full data, 450 (2.5%) were called active. 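Single biological run; no consistent viability z cut-off exists, so the class columns, not z-scores, define the calls.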 Entries without a mark were called inactive. Reagent sequences are not shown.

The first 2 entries as a preview:
| Target gene | viability hit class | caspase hit class | viability robust z-score | caspase robust z-score |
| --- | --- | --- | --- | --- |
| DDAH2 | no change | no change | -0.52 | 1.8 |
| ARHGEF19 | no change | no change | -0.83 | -1 |

Results, repeating the preview:
| Target gene | viability hit class | caspase hit class | viability robust z-score | caspase robust z-score |
| --- | --- | --- | --- | --- |
| DDAH2 | no change | no change | -0.52 | 1.8 |
| ARHGEF19 | no change | no change | -0.83 | -1 |
| LAMP5 | no change | no change | 0.41 | -0.08 |
| NKAIN4 | no change | no change | 0.34 | -0.62 |
| CYP3A4 | no change | no change | 0.48 | 1.38 |
| RITA1 | no change | no change | 1.68 | -0.72 |
| CABP4 | no change | no change | 1.22 | -0.3 |
| PIAS2 | no change | no change | 0.29 | -0.94 |
| ARHGAP24 | no change | no change | 0.74 | 0.08 |
| ITPR3 | no change | no change | 0.14 | -0.66 |
| INTU | no change | no change | 0.33 | -0.53 |
| CCDC87 | no change | no change | -1.01 | -1.13 |
| SDCBP2 | no change | no change | -2.29 | -0.91 |
| MGARP | no change | no change | 0.38 | -0.35 |
| EPRS1 | no change | no change | -1.8 | 0.76 |
| STARD5 | no change | no change | 0.38 | -0.28 |
| RGL2 | no change | no change | 0.64 | 0.12 |
| GOT1 | no change | no change | 0.64 | -0.8 |
| BBS5 | no change | no change | -0.5 | 0.18 |
| ACAP1 | no change | no change | 0.06 | 1.66 |
| ATF3 | no change | no change | -0.28 | 0.63 |
| PLA2G10 | no change | no change | 1.13 | -0.82 |
| IL12B | no change | no change | 0.18 | -1.11 |
| ATG10 | no change | no change | -0.85 | -0.4 |
| PRR22 | no change | no change | 0.34 | 0.48 |
| SNURF | no change | no change | 0.54 | -0.36 |
| KHDRBS2 | no change | no change | -0.26 | 0.55 |
| PPID | no change | no change | -0.02 | -0.35 |
| TSR1 | no change | no change | -0.84 | -1.38 |
| NKG7 | no change | no change | 0.45 | 0.08 |
| MEOX1 | no change | no change | 0.5 | 1.34 |
| IFT140 | no change | no change | 0.76 | -0.87 |
| SPATA20 | no change | no change | 0.16 | -0.02 |
| CLCA2 | no change | no change | 1.33 | 1.56 |
| ATPSCKMT | no change | no change | -0.34 | -0.36 |
| FAM193A | no change | no change | 0.32 | 0.31 |
| DEFA1 | no change | no change | 0.66 | 1 |
| ZNF503 | no change | no change | -0.16 | -0.61 |
| FOXE3 | no change | no change | 0.38 | 0.84 |
| RPL38 | no change | no change | -4.18 | -1.19 |
| CTSW | no change | no change | -1.05 | 0.94 |
| SOX3 | no change | no change | 0.08 | -0.78 |
| ARID3B | no change | no change | -1.72 | -0.17 |
| PNLDC1 | no change | no change | 0.8 | -0.73 |
| IVNS1ABP | no change | no change | -0.96 | 1.54 |
| PALD1 | no change | no change | -0.44 | -0.94 |
| MOGAT2 | no change | no change | -0.32 | 0.75 |
| SLC3A2 | no change | no change | 0.05 | 0.06 |
| CDH24 | no change | no change | -0.73 | 0.49 |
| ANKRD40 | no change | no change | -0.08 | 0.18 |
| MLLT10 | no change | no change | 1.11 | 0.06 |
| SLC7A3 | no change | no change | 0.34 | -0.42 |
| NMT1 | no change | no change | 0.42 | 1.92 |
| FAM86B1 | no change (active) | CA1 (caspase activation) | 0.76 | 7.5 |
| PLA2G2F | no change | no change | -0.53 | -0.62 |
| TCF23 | no change | no change | -2.23 | 0.85 |
| DCP1B | no change | no change | -0.71 | -1.1 |
| SLC39A4 | no change | no change | 1.5 | 0.5 |
| ELFN2 | no change | no change | -1.6 | 4.78 |
| EIF2B1 | no change | no change | 0.01 | -0.08 |
| ADCYAP1 | no change | no change | 0.04 | 0 |
| CROCC | no change | no change | 0.2 | 0.34 |
| SMR3B | no change (active) | CA2 (caspase activation) | -1.77 | 5.56 |
| RNMT | no change | no change | 0.99 | -0.39 |
| SHCBP1 | no change | no change | 0 | 0.44 |
| CNR2 | no change | no change | -0.49 | -1.22 |
| MEX3B | no change | no change | 0.63 | 1.75 |
| NRL | no change | no change | -0.82 | 4.23 |
| CCDC170 | no change | no change | 0.31 | 0.05 |
| TRIM16 | no change | no change | 1.32 | -1.4 |
| SPOCK1 | no change | no change | -0.33 | 3.03 |
| HYDIN | no change | no change | -0.12 | 1 |
| NDUFB9 | no change | no change | 0.88 | -0.15 |
